# Test results reported in PubChem BioAssay AID504834 (National Center for Advancing Translational Sciences (NCATS), 2011).
# The campaign covered roughly 320,000 compounds. About 22,000 (6.9%) were called active. Inconclusive results, whose numbers are uncertain, are shown with a selection of clear calls. The call rests on the fitted dose curve; in most records, active means well fitted inhibition curve with a large enough effect; inconclusive means small, poorly fitted or top-dose-only effect, or another doubt; inactive means no such curve, though single readings can be large or run the other way. Potencies of inconclusive entries are doubtful fits and often do not repeat.
# Experiment: Primary qHTS for delayed death inhibitors of the malarial parasite plastid, 96 hour incubation
# Conditions: P. falciparum luciferase reporter growth; series mostly up to 28.7 µM
# Summary of the method: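 P. falciparum expressing integrated firefly luciferase grown in erythrocytes (2% hematocrit, 0.05% parasitemia final) with compounds for 96 hours at 37 C, 5% CO2. Growth inhibition read as loss of luminescence after adding luciferase detection reagent.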
# On the % scale 0 is the no-effect control and ±100 the full control effect; potency means the concentration at half of the fitted maximal effect.
SMILES,Potency,"activity change, negative = inhibition"
COc1ccc(/C=N/NC(=O)c2nn(C)cc2Br)cc1CSCc1ccco1,inactive,
O=S(=O)(NCCc1ccccn1)c1cc(Cl)cc(Cl)c1O,inactive,
N=c1c(C(=O)NCCN2CCOCC2)cc2c(=O)n3ccccc3nc2n1CCc1ccccc1,active: 3.29 µM,
CCOc1ccc(NC(=O)CCS(=O)(=O)c2ccc3c(c2)CCCN3C(=O)CC)cc1,active: 9.28 µM,
CCCCc1ncc(CN2CCC(CC3CCCCO3)(C(=O)OCC)CC2)[nH]1 (centres undefined),"inconclusive: 7.38 µM [inhibitor, partial curve]",
O=C(Cn1nc(C(=O)O)c2ccccc2c1=O)Nc1ccccc1C(F)(F)F,inactive,
O=C(/C=C/c1ccc(Cl)c(Cl)c1)NCCCn1ccnc1,"inconclusive: 9.28 µM [inhibitor, partial curve, poor fit]",
Cc1cc(-n2nc3ccccc3n2)c(O)c([N+](=O)[O-])c1,inactive,
Nc1ccc2cn[nH]c2c1,inactive,
CCc1sc(NC(=O)C(C)C)nc1-c1ccccc1,inactive,
CCOC(=O)c1c(NC(=O)COC(=O)c2ccc(NC(=O)CC#N)cc2)sc(C(=O)NC)c1C,inactive,
O=C(CN1CCN(C2CCCCC2)CC1)Nc1ccc(Br)cc1,inactive,
CCOC(=O)COc1ccc2c(c1)c(C(C)=O)c(C)n2Cc1ccccc1,"inconclusive: 18.5 µM [inhibitor, single point]",
Nn1c(SCC(=O)NC2CCS(=O)(=O)C2)nc2scc(-c3ccccc3)c2c1=O (centres undefined),inactive,
CCOC(=O)C(NC(C)=O)C(O)c1ccc([N+](=O)[O-])cc1 (centres undefined),"inconclusive: 2.62 µM [inhibitor, full curve, poor fit]",
CNC(=S)N1N=C2c3ccccc3CCC2C1c1ccccc1Cl (centres undefined),"inconclusive: 2.08 µM [inhibitor, full curve]",
COc1ccc(-n2nnnc2SCC(=O)Nc2ccccc2F)cc1,"inconclusive: 7.38 µM [inhibitor, partial curve]",
CCOC(=O)C1=C(C)Nc2nc(C)nn2C1c1ccc(C)cc1 (centres undefined),inactive,
O=S(=O)(NCCn1cccc1)c1ccc2ccccc2c1,"inconclusive: 18.5 µM [inhibitor, single point]",
COCCNC(=O)/C(C#N)=C/c1ccc(OCc2ccccc2)cc1,"inconclusive: 13.1 µM [inhibitor, partial curve, poor fit]",
O=C(NNC(=O)C1CC1c1ccccc1)Nc1cccc(Cl)c1 (centres undefined),"inconclusive: 0.0928 µM [inhibitor, full curve, poor fit]",
Cc1c(C(=O)N2CCC3(CC2)OCCO3)oc2ccc(S(=O)(=O)N3CCCCC3)cc12,"inconclusive: 16.5 µM [inhibitor, single point]",
CC(C)C(=O)NCc1cc(-c2ccc(Cl)cc2)no1,"inconclusive: 2.62 µM [inhibitor, single point]",
O=C(NCc1ccc(F)cc1)C(=O)NCC1OCCN1C(=O)c1cccs1 (centres undefined),inactive,
COc1cc2cc(C(=O)O)n(C)c2c(OC)c1OC,"inconclusive: 0.928 µM [inhibitor, partial curve, poor fit]",

SMILES,Potency,"activity change, negative = inhibition"
O=C(COc1ccccc1)Nc1sc2c(c1C(=O)NCc1cccnc1)CCCC2,"inconclusive: 8.28 µM [inhibitor, partial curve, poor fit]",
Cc1cc(C)n2cc(CSc3nc4ccccc4[nH]3)nc2n1,"inconclusive: 18.5 µM [inhibitor, single point]",
CCOC(=O)CC(NC(=O)Cn1nnc(-c2ccccc2C)n1)c1ccc(OC)cc1 (centres undefined),"inconclusive: 18.5 µM [inhibitor, single point]",
Cc1noc(C)c1COc1cccc(C(=O)Nc2ccccc2)c1,"inconclusive: 8.28 µM [inhibitor, partial curve, poor fit]",
O=C(Nc1nccs1)c1cc(-c2ccccc2)nc2ccccc12,active: 3.29 µM,
O=C(Cc1ccccc1)NN1CCCCC1,inactive,
CCCN(CC(=O)Nc1ccccc1C)C(=O)C1CC(=O)N(c2ccc(CC)cc2)C1 (centres undefined),"inconclusive: 13.1 µM [inhibitor, single point]",
CCOc1ccc(Oc2ccc(S(=O)(=O)N3CCOCC3)cc2NC(=O)C2=COCCO2)cc1,"inconclusive: 7.38 µM [inhibitor, partial curve]",
C/C(=N/NC(=O)c1ccoc1C)c1cccc(NC(=O)C2CC2)c1,inactive,
Cc1ccc(NNC(=S)Nc2ccc(C(C)C)cc2)c(C)c1,"inconclusive: 18.5 µM [inhibitor, single point]",
Cc1ccc(C(=O)NCCN2CCOCC2)c(Cl)c1,inactive,
Cn1cccc1-c1nc2ccccc2n1C,"inconclusive: 18.5 µM [inhibitor, single point]",
CCN1CCN(c2nc(-c3ccncc3)nc3ccccc23)CC1,active: 7.38 µM,
CCOc1ccccc1C1c2[nH]c3ccccc3c2C[C@H]2C(=O)N(C3CCN(Cc4ccccc4)CC3)CC(=O)N12 (some centres undefined),active: 0.738 µM,
CCn1cc(CN2CCC(C(=O)Nc3ccc(Oc4ccccc4F)cc3)CC2)c(C)n1,"inconclusive: 13.1 µM [inhibitor, single point]",
COc1ccc([N+](=O)[O-])cc1NCc1ccccc1,active: 3.29 µM,
O=C(NCC1CC1)c1cc([N+](=O)[O-])cc([N+](=O)[O-])c1,inactive,
COC(=O)CSc1nnc(CNC(=O)c2ccc(S(=O)(=O)N3CCOCC3)cc2)n1C,inactive,
CCCN1CCC(NC(=O)Nc2cc(Cl)ccc2OC)CC1,inactive,
Cc1ccc(CN2CCN(Cc3cccc4nccnc34)CC2CCO)cc1 (centres undefined),inactive,
COCCNC(=S)N/N=C/c1ccc(-c2ccc([N+](=O)[O-])cc2)o1,"inconclusive: 0.117 µM [inhibitor, full curve, poor fit]",
CCOC(=O)N1CCN(C(=O)c2ccc(CNS(=O)(=O)c3ccc(NC(C)=O)cc3)cc2)CC1,"inconclusive: 10.4 µM [inhibitor, single point]",
CCCCc1noc2c1/C(=N\O)CC(c1ccccc1)C2 (centres undefined),"inconclusive: 0.522 µM [inhibitor, full curve]",
Cc1cccc(Cn2nc(C)cc2NC(=O)Cn2cc([N+](=O)[O-])cn2)c1,"inconclusive: 18.5 µM [inhibitor, single point]",
CCn1cc(SCC(=O)Nc2cc(C)on2)c2ccccc21,"inconclusive: 14.7 µM [inhibitor, single point]",

# An excerpt from above in order of length of the SMILES, descending:
SMILES,Potency,"activity change, negative = inhibition"
CCn1cc(CN2CCC(C(=O)Nc3ccc(Oc4ccccc4F)cc3)CC2)c(C)n1,"inconclusive: 13.1 µM [inhibitor, single point]",
O=C(COc1ccccc1)Nc1sc2c(c1C(=O)NCc1cccnc1)CCCC2,"inconclusive: 8.28 µM [inhibitor, partial curve, poor fit]",
O=C(NCc1ccc(F)cc1)C(=O)NCC1OCCN1C(=O)c1cccs1 (centres undefined),inactive,
O=C(/C=C/c1ccc(Cl)c(Cl)c1)NCCCn1ccnc1,"inconclusive: 9.28 µM [inhibitor, partial curve, poor fit]",

# (further entries)

SMILES,Potency,"activity change, negative = inhibition"
O=C(Nc1ccc(Cl)cc1)OCc1cn(-c2ccccc2)nn1,inactive,
CCOC(=O)C1CCCN(C(=O)c2cccc(NC(=O)C(CC)CC)c2)C1 (centres undefined),,inactive: 12.4% [at 5.75 µM]
CC(C)(C)c1ccc(-c2nn(CCC#N)cc2/C=N/O)cc1,inactive,
Cc1cccc(C(C(=O)NC2CCCCC2)N(Cc2cccnc2)C(=O)c2csnn2)c1 (centres undefined),"inconclusive: 2.62 µM [inhibitor, partial curve]",
Cc1ccccc1NC(=O)CCNS(=O)(=O)c1ccc2c(c1)CCC(=O)N2,"inconclusive: 18.5 µM [inhibitor, single point]",
CN1CCN(C(=O)/C=C\C(=O)O)CC1,"inconclusive: 2.94 µM [inhibitor, single point]",
CCOc1ncccc1C(=O)Nc1ccc(Cl)c(S(=O)(=O)N2CCCC2)c1,"inconclusive: 6.57 µM [inhibitor, partial curve, poor fit]",
COc1ccc(CCNC(=O)c2cc(C3CC3)nc3c2cnn3C(C)C)cc1,"inconclusive: 10.4 µM [inhibitor, partial curve, poor fit]",
C/C(CCC1CC(C)OC1=O)=N\NC(N)=S (centres undefined),"inconclusive: 2.62 µM [inhibitor, full curve, poor fit]",
COCCn1cnc2c(c1=O)c1nc3ccccc3nc1n2/N=C/c1ccc(OC)c(OC)c1,active: 2.62 µM,
COc1ccc(N=CC2=C(O)CC(c3ccccc3)CC2=O)c(OC)c1 (centres undefined),"inconclusive: 8.28 µM [inhibitor, partial curve, poor fit]",
COc1ccc(O)c(-c2[nH]ncc2C(=O)c2cccc(C)c2)c1,inactive,
CCOc1ccccc1OCCCC(=O)Nc1cccc(-n2cnnn2)c1C,inactive,
Cc1onc(-c2ccccc2Cl)c1C(=O)Nc1nnc(-c2ccc(F)cc2)s1,inactive,
CC(C)C[C@H](NC(=O)c1[nH]cnc1C(=O)N[C@@H](C)c1ccccc1)C(=O)OC(C)(C)C,"inconclusive: 1.65 µM [inhibitor, full curve]",
COc1cc(SC#N)ccc1N=Cc1c(C)[nH]n(-c2ccc(Cl)cc2)c1=O,active: 2.08 µM,
Cc1nc(C(C)NC(=O)CCc2nnc(Cc3c[nH]c4ccccc34)o2)cs1 (centres undefined),active: 4.65 µM,
Cc1cc(C)c2cc3c(N)c(C(=O)N4CCOCC4)sc3nc2c1,"inconclusive: 1.65 µM [inhibitor, full curve]",
CCCc1nnc(NC(=O)c2nc(S(=O)(=O)Cc3ccc(C)cc3)ncc2Cl)s1,"inconclusive: 18.5 µM [inhibitor, single point]",
Cc1ccccc1CN1CCN(C2CCC2)CC1CCO (centres undefined),active: 14.7 µM,
COc1ccc(CC(=O)N2CCCc3ccccc32)cc1,"inconclusive: 1.47 µM [inhibitor, partial curve]",
COc1ccc(CN2CCC(Oc3ccc(C(=O)NCc4ccccn4)cc3)CC2)c(F)c1,"inconclusive: 2.62 µM [inhibitor, single point]",
COc1cc2c(cc1OC)C(c1ccccc1)N(C(=O)CCl)CC2 (centres undefined),"inconclusive: 0.657 µM [inhibitor, full curve, poor fit]",
Cc1ccc(C#CC[N+]2(CC#Cc3ccc(C)cc3)CCCCC2)cc1,"inconclusive: 0.37 µM [inhibitor, full curve, poor fit]",
